Laboratory results taken from PubChem BioAssay AID2685 (National Center for Advancing Translational Sciences (NCATS), 2010).
This is one part of the list. These are further read-outs of the screen, such as a control signal, another cell line or another target. No call is given for them. The list favours compounds with an active or inconclusive main result. Potencies come from curve fits of mixed quality, noted in brackets.

Assay: qHTS Assay for Lipid Storage Modulators in Drosophila S3 Cells;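 for cell number change: cells counted by Cell Tracker Red CMTPX staining in the red channel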
Conditions: BODIPY lipid droplet fluorescence, 18-24 h; for cell number change: measured here: cell count max response, cells fed with added oleic acid
Outline: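 Laser-scanning cytometry quantifies lipid droplet accumulation (500–530 nm total intensity; droplet/cell object ratio) in oleic acid-fed (400 uM added) Drosophila S3 cells treated with a concentration series. 20 uM Triacsin C defined 100% inhibition.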

[1] = measured here: lipid fluorescence (Fed channel) AC50, cells fed with added oleic acid
[2] = measured here: cell number channel AC50, cells fed with added oleic acid

| Structure (SMILES) | cell number change | AC50 [1] | AC50 [2] |
| --- | --- | --- | --- |
| Oc1ccccc1OCCOc1ccccc1OCCOc1ccccc1O | 11.8% | 6.51 µM [falling, partial curve] | – |
| COc1ccc2c(c1)SCCC2=O | – | – | 6.51 µM [falling, single point] |
| CCOC(=O)c1nnn(-c2nonc2N)c1-c1ccc(OCC)cc1 | 137% | – | – |
| CC1CCN(C(=O)COC(=O)Cc2c[nH]c3ccccc23)CC1 | -2.48% | 0.058 µM [rising, full curve, poor fit] | – |
| CN(C)c1nc(C(=O)O)nc(N2CCOCC2)n1 | 14.1% | – | – |
| Cc1cc([N+](=O)[O-])nn1CC(=O)NCc1ccccc1 | -14.3% | – | – |
| CC1(C)CC2CC(C)(CN2S(=O)(=O)c2ccc(C(=O)Nc3ccc(Cl)c(S(=O)(=O)N4CCOCC4)c3)cc2)C1 (stereo unspecified) | – | 7.31 µM [falling, partial curve] | – |
| COc1ccccc1N1CCN(C(=O)c2ccncc2)CC1 | 0.323% | 3.26 µM [falling, single point] | – |
| Clc1cccc(NCc2nnc(SCc3ccccc3Cl)o2)c1 | 63% | – | 20.6 µM [rising, single point] |
| CC(C)(C)c1nnc(NC(=O)CCS(=O)(=O)Cc2ccccc2)s1 | 2.14% | 6.51 µM [rising, single point] | – |
| CC(=O)c1sc(N/N=C\c2ccc(N(C)C)cc2)nc1C | -20.8% | 29.1 µM [falling, single point] | – |
| COc1cccc(N2CCN(Cc3ccsc3)CC2)c1 | 13.5% | 0.517 µM [falling, partial curve] | – |
| O=C(C1CCC1)N1CCN(Cc2ccccc2)CC1 | -0.975% | 0.0058 µM [rising, full curve, poor fit] | – |
| COc1ccc2c(c1)c(C(=O)N/N=C/c1ccc(O)c(O)c1)c(C)n2C | -9.16% | – | 1.03 µM [falling, full curve] |
| C=CC1C(N2CCOCC2)C(C)(C)S1(=O)=O (stereo unspecified) | -2.98% | 29.1 µM [falling, single point] | – |
| CN(CC(=O)Nc1ccc(Cl)c(C(F)(F)F)c1)C(=O)Cc1c[nH]c2ccccc12 | 22.5% | 1.64 µM [rising, partial curve, poor fit] | – |
| CCCn1c2ccccc2c2cnn(CC(=O)NC3CCC(C)CC3)c(=O)c21 (stereo unspecified) | 4.48% | – | – |
| O=C(Cc1cccs1)N(Cc1cccs1)C1(C(=O)NC2CCCCC2)CCCCC1 | -51% | – | 18.4 µM [falling, partial curve, poor fit] |
| Oc1ccccc1CNc1ncc(Br)cc1Br | -42.4% | 29.1 µM [falling, single point] | 29.1 µM [falling, single point] |
| O=C(CSc1nnc(CNC(=O)c2ccccc2)o1)NCc1ccc2c(c1)OCO2 | -28% | 32.6 µM [falling, partial curve, poor fit] | – |
| Cc1cc(Oc2ccc(-c3ccccc3)cc2)n2ncnc2n1 | -2.06% | 18.4 µM [falling, single point] | – |

| Structure (SMILES) | cell number change | AC50 [1] | AC50 [2] |
| --- | --- | --- | --- |
| Nc1cc2c(cc1Cl)N(Cc1ccccc1)C(=O)CO2 | -2.33% | 7.31 µM [rising, partial curve] | – |
| CN(C)S(=O)(=O)c1ccc(Cl)c(-c2nnc3n2CCCCC3)c1 | -33.3% | – | 29.1 µM [falling, single point] |
| C/C(=N\NC(=O)C(N)=O)c1cccc([N+](=O)[O-])c1 | 14.2% | 0.146 µM [falling, full curve] | – |
| CC(NC(=O)COc1ccccc1F)C1CC2CCC1C2 (stereo unspecified) | – | 0.13 µM [falling, full curve, poor fit] | 0.164 µM [falling, full curve, poor fit] |
| COc1cc(C2NC(=O)CCC2[N+](=O)[O-])cc(OC)c1OC (stereo unspecified) | -13.9% | 18.4 µM [rising, partial curve] | 4.61 µM [falling, partial curve, poor fit] |
| Cc1ccc2c(C)nc(NC3=NCN(CCc4ccccc4)CN3)nc2c1 | 9.12% | – | – |
| O=c1c2ccccc2sn1-c1ccc(S(=O)(=O)N2CCCC2)cc1 | -36.4% | 1.64 µM [falling, partial curve, poor fit] | 1.84 µM [falling, full curve] |
| CC(=O)C1=NN(c2ccccc2)C(c2ccc3c(c2)OCO3)N1c1ccccc1 (stereo unspecified) | 23% | 2.91 µM [rising, full curve] | – |
| CCOC(=O)C1CCN(S(=O)(=O)c2ccc3c(c2)N(C(C)=O)CC(C)S3)CC1 (stereo unspecified) | -28.9% | 29.1 µM [falling, single point] | – |
| CC(C)(C)c1cc(C(c2cccnc2)N2CCN(CCO)CC2)cc(C(C)(C)C)c1O (stereo unspecified) | -67.3% | 29.1 µM [falling, single point] | 29.1 µM [falling, single point] |
| CCOC(=O)c1ccc(NC(=O)CSCCC(=O)O)cc1 | -31% | – | 0.092 µM [falling, full curve] |
| COCCNC(=O)CCCn1c(=O)c2ccccc2n(Cc2ccccc2C#N)c1=O | 58.6% | – | 16.4 µM [rising, partial curve] |
| CC(=O)OCC12COC3c4ccccc4OC(C)(CC1C)C3C2C (stereo unspecified) | -2.16% | 6.51 µM [rising, single point] | 0.651 µM [rising, full curve] |
| O=C(Nc1ccc(-n2nncc2-c2ccco2)cc1)c1ccc(F)cc1 | 17.3% | – | – |
| O=c1c2ccccc2[nH]c(=S)n1CCN1CCN(Cc2ccccc2)CC1 | 52.2% | – | 29.1 µM [rising, single point] |
| Cc1ccc(C(=O)NNC(=O)CCCN2C(=O)/C(=C/c3ccccc3Cl)SC2=S)cc1 | -23.3% | 14.6 µM [falling, partial curve] | – |
| O=S(=O)(c1ccccc1)N1CCN(c2cc(-c3ccccc3)nc3ncnn23)CC1 | -40.3% | 16.4 µM [falling, partial curve] | 16.4 µM [falling, single point] |
| Cc1ccc(-n2ncc3c2CCCC3NC(=O)CCC2=NNC(=O)CC2)cc1C (stereo unspecified) | 7.28% | 0.92 µM [rising, full curve, poor fit] | 1.3 µM [rising, partial curve] |
| O=C(CN1CCC(C(=O)c2ccc(F)cc2)CC1)NCc1ccccc1F | -5.65% | 6.51 µM [rising, single point] | – |
| Cc1ccc(/C=N/NC(=O)C(C)Oc2cccc3ccccc23)o1 (stereo unspecified) | -16.3% | 2.91 µM [rising, single point] | – |
| CC(C)C(OC(=O)c1cc2occc2n1C)C(=O)NCc1ccc2c(c1)OCO2 (stereo unspecified) | 0.259% | 1.16 µM [falling, partial curve] | – |

Quoted at random: 3 records from the list, in no set order.

| Structure (SMILES) | cell number change | AC50 [1] | AC50 [2] |
| --- | --- | --- | --- |
| Oc1ccccc1CNc1ncc(Br)cc1Br | -42.4% | 29.1 µM [falling, single point] | 29.1 µM [falling, single point] |
| COc1ccccc1N1CCN(C(=O)c2ccncc2)CC1 | 0.323% | 3.26 µM [falling, single point] | – |
| COc1cccc(N2CCN(Cc3ccsc3)CC2)c1 | 13.5% | 0.517 µM [falling, partial curve] | – |

(next part)

| Structure (SMILES) | cell number change | AC50 [1] | AC50 [2] |
| --- | --- | --- | --- |
| FC(F)(F)c1cccc(NC(=S)NNC(=S)NCc2ccccc2)c1 | -27.2% | 29.1 µM [falling, single point] | – |
| O=C(O)c1cccc(N2C(=O)/C(=C/c3ccc([N+](=O)[O-])cc3)C=C2c2ccccc2)c1 | -12% | 25.9 µM [falling, single point] | – |
| Cc1ccccc1NC(=O)c1ccccc1-c1ccccc1 | – | – | 4.61 µM [falling, partial curve, poor fit] |
| COc1cccc(NC(=O)CN2CCN(S(=O)(=O)c3ccc(C(C)C)cc3)CC2)c1 | -2.91% | 0.103 µM [falling, full curve, poor fit] | – |
| Cc1cccc(-n2cc(-c3ccccc3)c3c(=O)[nH]cnc32)c1 | -16.3% | 0.326 µM [falling, full curve] | – |
| CCC(CC)c1nnc(NC(=O)CS(=O)(=O)c2ccccc2)s1 | 10.1% | 13 µM [rising, partial curve] | – |
| Cc1ccc(-c2nnc(Nc3ccc4c(c3)OCO4)c3ccccc23)cc1S(N)(=O)=O | -15.4% | – | – |
| C=CCNC(=S)Nc1sc2c(c1C(N)=O)CCCC2 | -6.97% | 0.517 µM [rising, partial curve] | – |
| CC(C)C(=O)Nc1cc(C(F)(F)F)ccc1N1CCOCC1 | – | 0.82 µM [rising, single point] | – |
| CCNC(=O)c1ccccc1NC(=O)c1cccc(S(=O)(=O)N2CCOCC2)c1 | -40% | 0.58 µM [rising, full curve, poor fit] | 29.1 µM [falling, single point] |
| Cc1ccc(S(=O)(=O)NC2=NCN(C(C)C)CN2)cc1 | -13.2% | – | – |
| O=C(O)CS(=O)CC(=O)Nc1cccc(C(F)(F)F)c1 (stereo unspecified) | 7.64% | – | – |
| CC(C)N1C(=O)c2ccccc2C1C(=O)NCCc1ccccc1 (stereo unspecified) | 9.91% | – | 6.51 µM [rising, single point] |
| O=C(Nc1cccc(C(F)(F)F)c1)Nc1ccc2[nH]c(=O)[nH]c2c1 | -17% | – | – |
| CCC(C)NC(=O)Cn1c(=O)n(CCCC(=O)NCc2ccccc2Cl)c(=O)c2ccccc21 (stereo unspecified) | 11.4% | 4.61 µM [rising, partial curve] | 0.517 µM [rising, partial curve, poor fit] |
| COc1ccc(C(=O)NC2CCCCCC2)cc1OC1CCN(C(C)=O)CC1 | 2.75% | – | – |
| CC(C)Oc1ccc(C(=O)NC(C)(C)CO)cc1 | 2.97% | – | – |
| COc1ccc(/C=C2\SC(=S)N(CCC(=O)N3CCCCC3CCO)C2=O)cc1 (stereo unspecified) | – | 18.4 µM [falling, single point] | – |
| Cc1ccc2oc(C(=O)NCc3ccc4c(c3)OCO4)c(C)c2c1 | -8.48% | 29.1 µM [rising, single point] | – |
| COc1cc2cnc(-c3ccccc3)c(-c3ccc([N+](=O)[O-])cc3)c2cc1OC | -18.6% | 0.0058 µM [rising, full curve, poor fit] | – |
